This is one part of the list.
The sequences below were run against T1, OsSMF1 (Oryza sativa, UniProt Q6ZLB0 1-436) (assay: protein-binding microarray (RPBM); PBS, 2% BSA, 51.3 ng/ul salmon testes DNA, 50 uM zinc acetate, 200 nM TF, 25 C, 1 h; high values mean tight binding). Conditions: protein: recombinant; tags: N-terminal polyhistidine and DsRed monomer fusion (pET32a); chain copies: 2; label: CyDye5-dUTP incorporated in the synthesized complementary strand; 3' TTTTT single-stranded linker to array surface; dsDNA, one strand shown.
T1 sequence: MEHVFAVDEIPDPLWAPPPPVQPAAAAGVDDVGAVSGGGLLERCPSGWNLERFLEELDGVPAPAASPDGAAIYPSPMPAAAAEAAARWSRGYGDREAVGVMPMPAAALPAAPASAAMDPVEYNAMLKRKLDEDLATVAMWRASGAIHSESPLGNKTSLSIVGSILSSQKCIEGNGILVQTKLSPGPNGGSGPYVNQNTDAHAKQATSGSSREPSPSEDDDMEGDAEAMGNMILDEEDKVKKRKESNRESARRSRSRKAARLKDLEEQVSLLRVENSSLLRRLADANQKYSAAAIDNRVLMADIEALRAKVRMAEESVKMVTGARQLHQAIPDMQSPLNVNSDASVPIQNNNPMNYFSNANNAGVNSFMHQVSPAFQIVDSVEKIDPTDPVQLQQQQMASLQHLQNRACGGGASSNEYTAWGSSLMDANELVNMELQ
How it was run: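 In PBS with 2% BSA, salmon testes DNA and 50 µM zinc acetate, 200 nM protein was incubated on a custom Agilent array at 25 °C for 1 h and then washed off. The array had been made double-stranded by primer extension with Cy5-dUTP and blocked with 2% BSA. The proteins were transcription factors fused N-terminally to polyhistidine and DsRed, expressed in E. coli BL21-CodonPlus and purified on Ni–NTA. The binding signal is per-feature fluorescence intensity (arbitrary units) from an Axon 4000B scanner.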
In the case of “GTCCGTCGCGCGTCACCGCGTGCCTCGCCACGCCCACGCCCGGAGTCACCTAGTGCAG”, the binding signal is reported as 5090 fluorescence intensity (a.u.).
With “CTGCTACTGATTCTATGAGGTGGCATAGCATGGAAATCAGCGGAGTCACCTAGTGCAG” the binding signal was 4820 fluorescence intensity (a.u.).
For “ACCTAAAGCAAACTTACTCCCACTCTTAGTGACACGGATCCGGAGTCACCTAGTGCAG”, the binding signal was 3640 fluorescence intensity (a.u.).
For “CATTTATCTAGAAATAATTTACTCATTATTTCAACTGATCCGGAGTCACCTAGTGCAG”, the binding signal was 28500 fluorescence intensity (a.u.).
For “GCCGCTACCCTCCTCGTCGGTGTCGGGCTATTTATACACTCGGAGTCACCTAGTGCAG”, the binding signal was 4530 fluorescence intensity (a.u.).
With “ATCGAACGCAAGAAAGAACATGACACCTCATCCAACAGCTCGGAGTCACCTAGTGCAG” the binding signal was 5710 fluorescence intensity (a.u.).
With “CCCTTCTCTGGAGACGCCACGCCCACGTTCCTCTCGTCTCCGGAGTCACCTAGTGCAG” the binding signal was 3180 fluorescence intensity (a.u.).
In the case of “GGTACGGTCGCTGAGGAGAGGCTGGCGTGGGCGGTGGAGCCGGAGTCACCTAGTGCAG”, the binding signal is reported as 3190 fluorescence intensity (a.u.).
In the case of “GAAGAAGAAGCTCTAGATAGCTATATATCCCAGCTGCTGCCGGAGTCACCTAGTGCAG”, the binding signal is reported as 27700 fluorescence intensity (a.u.).
With “TGTCTTTGAATCCACGTTGCTCGACATAGTGTTCTTTTGTCGGAGTCACCTAGTGCAG” the binding signal was 5460 fluorescence intensity (a.u.).
In the case of “GGTGTGCTATCAATGATGGTGGGGCAACTAGGATGTGATGCGGAGTCACCTAGTGCAG”, the binding signal is reported as 3410 fluorescence intensity (a.u.).
“GCGGGAGAACAGTGATGTGTAGGGTTTCAGGGGAATGGAGCGGAGTCACCTAGTGCAG” was tested, and the binding signal was 7120 fluorescence intensity (a.u.).
“CGTCTCATGAGTCATGATCCAACGTCATGCATGTATGTAACGGAGTCACCTAGTGCAG” was tested, and the binding signal was 11400 fluorescence intensity (a.u.).
With “TCGCGATGACGAGCTCGGCCACCACCTCAACATCGTCCATCGGAGTCACCTAGTGCAG” the binding signal was 4500 fluorescence intensity (a.u.).
For “ATGCTCCAGACGGTCTACGTGTTCCCTCCCAACAATAAAACGGAGTCACCTAGTGCAG”, the binding signal was 3260 fluorescence intensity (a.u.).
With “CCGGAGGAAGATCGGATTATACACGTTCTCTTGGATTCGACGGAGTCACCTAGTGCAG” the binding signal was 4570 fluorescence intensity (a.u.).
“TAGGGTTCTGGTTCTCTCCCCTACAAATACCCACGTACTCCGGAGTCACCTAGTGCAG” was tested, and the binding signal was 3240 fluorescence intensity (a.u.).
In the case of “CATGGATAGGATAATCGTAACAATTATCTAGACAGTGATGCGGAGTCACCTAGTGCAG”, the binding signal is reported as 3140 fluorescence intensity (a.u.).
For “GTACATACGCTGACACTGTTGGTGCGCGTGTGCGTCTCCCCGGAGTCACCTAGTGCAG”, the binding signal was 3810 fluorescence intensity (a.u.).
With “CCACTCGCTCTGCCACCGCATGCTCGATAGCCGCTTCCCCCGGAGTCACCTAGTGCAG” the binding signal was 4840 fluorescence intensity (a.u.).
“AGCTCCACCCCTTCTGAGCTGGAGTTCAGTCATACAGGAGCGGAGTCACCTAGTGCAG” was tested, and the binding signal was 3800 fluorescence intensity (a.u.).
In the case of “AACAACAGGAGTGGTGCATGACAAATACTCCTACCTAGCACGGAGTCACCTAGTGCAG”, the binding signal is reported as 36400 fluorescence intensity (a.u.).
In the case of “ACACTACTGGCACAAGGGCCGCGTCAGGGACTTGGTCATGCGGAGTCACCTAGTGCAG”, the binding signal is reported as 3970 fluorescence intensity (a.u.).
For “ACCTGATGAAGGGATCGATCGATAGTGAGGTGTGCAATGGCGGAGTCACCTAGTGCAG”, the binding signal was 3840 fluorescence intensity (a.u.).
In the case of “GTGCATGCGTGACGATGTCATGCTTGTGTGCCATCGGTGGCGGAGTCACCTAGTGCAG”, the binding signal is reported as 4500 fluorescence intensity (a.u.).
“AGTGCCACCGTATGACGCATGATAACTGGTGTGGAGGCTGCGGAGTCACCTAGTGCAG” was tested, and the binding signal was 4440 fluorescence intensity (a.u.).
With “CAAAATCAACCCGACTTCCAGGCTCCCAGCGCCACTGCGCCGGAGTCACCTAGTGCAG” the binding signal was 3440 fluorescence intensity (a.u.).
“GTATATAATATGGTGTTGAGTGTCATTGGTGTATGCTTGACGGAGTCACCTAGTGCAG” was tested, and the binding signal was 3560 fluorescence intensity (a.u.).
With “AAATCGACGAAGTCATTATAGTCGTAGATGTCTCTCTATTCGGAGTCACCTAGTGCAG” the binding signal was 32100 fluorescence intensity (a.u.).
“TTGTTTGCAGATGCGCGCTCCGCTTAGAAAATAGCAGCAGCGGAGTCACCTAGTGCAG” was tested, and the binding signal was 4380 fluorescence intensity (a.u.).
With “GTGCATTAGTCCCTTAATCGTTTGTCATCAATAAACCAAACGGAGTCACCTAGTGCAG” the binding signal was 3390 fluorescence intensity (a.u.).
In the case of “TAATATTTCACGAAGTTATTCAAACGTTCGATGTGGCAGGCGGAGTCACCTAGTGCAG”, the binding signal is reported as 3720 fluorescence intensity (a.u.).
With “ATTTATGATTAACATATATTATTATGTACAAGTAGGTGATCGGAGTCACCTAGTGCAG” the binding signal was 3570 fluorescence intensity (a.u.).
“TACTAGAGAAACTTTATTGCACAAAAGGAAATTTATCCATCGGAGTCACCTAGTGCAG” was tested, and the binding signal was 3410 fluorescence intensity (a.u.).
With “CCACCATGGATCCGACGTGGCACAACCACATTGGTCCCTCCGGAGTCACCTAGTGCAG” the binding signal was 17700 fluorescence intensity (a.u.).
For “CATTGCTTTGTTTGATCTTGTGTGCCAATAATTGATGAAACGGAGTCACCTAGTGCAG”, the binding signal was 55900 fluorescence intensity (a.u.).
With “TAAAGGTCAAGAAATAGCAGTGAAGAGGCTCGCGAAGACTCGGAGTCACCTAGTGCAG” the binding signal was 35300 fluorescence intensity (a.u.).
In the case of “GATATTACGATAAGAACATGGCGTAGTACGAGCTAGTATCCGGAGTCACCTAGTGCAG”, the binding signal is reported as 37100 fluorescence intensity (a.u.).
“ACCATGCCACCATATGTCTGATTAGCACACTTCTTTTAAACGGAGTCACCTAGTGCAG” was tested, and the binding signal was 15700 fluorescence intensity (a.u.).
For “AACACTCACTGACACGTGGACCCCACCCTCCCCTGGCCCCCGGAGTCACCTAGTGCAG”, the binding signal was 25800 fluorescence intensity (a.u.).
“AGCAGATAAGGTTTTGGAACGGCTGCTACACGTACGAACCCGGAGTCACCTAGTGCAG” was tested, and the binding signal was 3640 fluorescence intensity (a.u.).
In the case of “CAAAATGGAGAGCTAGCACACACGATAGGGACGGCTCGACCGGAGTCACCTAGTGCAG”, the binding signal is reported as 32600 fluorescence intensity (a.u.).
